Laboratory results reported in the supplement of paper PMC10849652.
Some of the results follow.

Protein sequences, listed by entry. Tags and fused reporters are not part of them. Lines headed by an entry give the natural chain unless they say otherwise; changes in a name come on top.
UniProt Q8IYI0: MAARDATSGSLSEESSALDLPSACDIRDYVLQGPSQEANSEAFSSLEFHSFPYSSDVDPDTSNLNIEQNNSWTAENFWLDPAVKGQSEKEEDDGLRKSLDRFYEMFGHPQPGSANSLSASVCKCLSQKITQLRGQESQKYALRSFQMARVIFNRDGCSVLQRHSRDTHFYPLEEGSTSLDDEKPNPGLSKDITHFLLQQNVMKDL
UniProt Q8WV19: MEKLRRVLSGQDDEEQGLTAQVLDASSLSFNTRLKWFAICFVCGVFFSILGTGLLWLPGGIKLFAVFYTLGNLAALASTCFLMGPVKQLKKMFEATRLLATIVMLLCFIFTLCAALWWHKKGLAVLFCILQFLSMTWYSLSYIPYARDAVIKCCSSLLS
UniProt P05543: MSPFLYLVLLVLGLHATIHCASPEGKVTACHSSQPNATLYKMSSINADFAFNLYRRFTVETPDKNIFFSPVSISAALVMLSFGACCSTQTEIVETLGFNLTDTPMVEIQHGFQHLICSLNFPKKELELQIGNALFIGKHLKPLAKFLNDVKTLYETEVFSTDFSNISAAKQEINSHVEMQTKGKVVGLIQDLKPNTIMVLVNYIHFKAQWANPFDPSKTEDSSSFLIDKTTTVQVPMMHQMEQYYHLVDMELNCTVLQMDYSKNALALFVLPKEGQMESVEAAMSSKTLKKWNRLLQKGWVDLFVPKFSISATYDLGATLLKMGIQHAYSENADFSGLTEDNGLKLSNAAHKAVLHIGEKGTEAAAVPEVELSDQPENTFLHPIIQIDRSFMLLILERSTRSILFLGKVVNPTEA
UniProt O75635: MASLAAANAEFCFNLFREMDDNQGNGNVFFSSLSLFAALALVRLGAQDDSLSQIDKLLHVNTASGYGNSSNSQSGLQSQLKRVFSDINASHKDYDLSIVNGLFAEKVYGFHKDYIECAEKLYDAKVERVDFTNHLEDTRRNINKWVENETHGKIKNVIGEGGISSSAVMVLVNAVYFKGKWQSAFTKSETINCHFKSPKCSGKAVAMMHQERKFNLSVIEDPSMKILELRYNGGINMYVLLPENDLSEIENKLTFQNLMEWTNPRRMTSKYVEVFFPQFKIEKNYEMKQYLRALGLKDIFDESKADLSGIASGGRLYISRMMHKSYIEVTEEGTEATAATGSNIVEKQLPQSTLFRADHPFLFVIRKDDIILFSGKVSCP
UniProt O60779: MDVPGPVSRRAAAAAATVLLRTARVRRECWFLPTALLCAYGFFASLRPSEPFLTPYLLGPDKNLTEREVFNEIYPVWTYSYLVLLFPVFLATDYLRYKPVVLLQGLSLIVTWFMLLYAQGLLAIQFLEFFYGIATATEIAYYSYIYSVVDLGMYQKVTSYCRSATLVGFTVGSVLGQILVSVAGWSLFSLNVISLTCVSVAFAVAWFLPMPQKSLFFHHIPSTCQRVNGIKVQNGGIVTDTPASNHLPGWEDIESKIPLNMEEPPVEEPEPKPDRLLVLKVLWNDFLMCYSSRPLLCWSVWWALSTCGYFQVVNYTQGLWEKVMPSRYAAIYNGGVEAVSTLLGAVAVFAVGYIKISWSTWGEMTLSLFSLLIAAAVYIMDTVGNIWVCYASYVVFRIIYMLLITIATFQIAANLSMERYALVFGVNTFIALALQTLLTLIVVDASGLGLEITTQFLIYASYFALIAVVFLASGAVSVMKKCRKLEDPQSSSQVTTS
UniProt Q01105, whole entry, looked up: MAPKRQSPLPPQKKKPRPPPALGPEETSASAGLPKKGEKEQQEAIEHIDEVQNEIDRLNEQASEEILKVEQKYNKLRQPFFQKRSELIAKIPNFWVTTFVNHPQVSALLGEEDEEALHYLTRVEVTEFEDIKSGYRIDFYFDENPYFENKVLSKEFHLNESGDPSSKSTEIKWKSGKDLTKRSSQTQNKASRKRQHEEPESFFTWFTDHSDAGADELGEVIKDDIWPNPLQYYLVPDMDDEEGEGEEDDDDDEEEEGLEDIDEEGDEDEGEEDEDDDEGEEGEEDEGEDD
UniProt Q86VW0: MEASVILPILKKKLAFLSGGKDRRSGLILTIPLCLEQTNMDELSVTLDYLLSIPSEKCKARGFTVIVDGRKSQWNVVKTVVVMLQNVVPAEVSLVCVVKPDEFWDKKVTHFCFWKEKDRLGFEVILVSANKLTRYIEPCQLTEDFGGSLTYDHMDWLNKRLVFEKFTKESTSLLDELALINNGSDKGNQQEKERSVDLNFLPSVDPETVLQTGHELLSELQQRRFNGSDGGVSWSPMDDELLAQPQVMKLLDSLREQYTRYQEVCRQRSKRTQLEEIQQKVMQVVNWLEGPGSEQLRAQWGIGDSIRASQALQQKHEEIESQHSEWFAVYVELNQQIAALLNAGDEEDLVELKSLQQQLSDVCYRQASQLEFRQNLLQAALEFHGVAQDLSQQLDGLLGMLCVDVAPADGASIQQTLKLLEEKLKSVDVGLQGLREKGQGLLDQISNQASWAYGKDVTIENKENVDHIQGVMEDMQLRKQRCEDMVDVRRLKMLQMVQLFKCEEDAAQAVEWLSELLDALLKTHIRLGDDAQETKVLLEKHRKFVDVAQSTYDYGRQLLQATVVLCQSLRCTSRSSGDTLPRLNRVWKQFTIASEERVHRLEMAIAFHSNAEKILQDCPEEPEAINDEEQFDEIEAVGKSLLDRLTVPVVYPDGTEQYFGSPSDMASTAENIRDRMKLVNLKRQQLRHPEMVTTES
UniProt Q8TBK2: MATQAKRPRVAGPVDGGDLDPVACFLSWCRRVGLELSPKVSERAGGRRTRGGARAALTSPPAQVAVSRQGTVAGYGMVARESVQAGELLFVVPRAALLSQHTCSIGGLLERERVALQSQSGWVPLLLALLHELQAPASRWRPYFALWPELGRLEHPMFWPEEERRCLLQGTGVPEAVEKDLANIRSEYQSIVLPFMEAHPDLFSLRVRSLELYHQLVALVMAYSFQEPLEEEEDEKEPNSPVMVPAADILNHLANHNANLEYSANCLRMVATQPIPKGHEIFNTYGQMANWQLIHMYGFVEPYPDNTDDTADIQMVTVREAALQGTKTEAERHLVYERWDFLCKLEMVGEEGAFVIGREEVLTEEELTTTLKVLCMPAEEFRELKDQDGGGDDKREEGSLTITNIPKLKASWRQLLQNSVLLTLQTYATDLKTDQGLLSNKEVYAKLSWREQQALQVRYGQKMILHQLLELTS
UniProt Q9BRG2: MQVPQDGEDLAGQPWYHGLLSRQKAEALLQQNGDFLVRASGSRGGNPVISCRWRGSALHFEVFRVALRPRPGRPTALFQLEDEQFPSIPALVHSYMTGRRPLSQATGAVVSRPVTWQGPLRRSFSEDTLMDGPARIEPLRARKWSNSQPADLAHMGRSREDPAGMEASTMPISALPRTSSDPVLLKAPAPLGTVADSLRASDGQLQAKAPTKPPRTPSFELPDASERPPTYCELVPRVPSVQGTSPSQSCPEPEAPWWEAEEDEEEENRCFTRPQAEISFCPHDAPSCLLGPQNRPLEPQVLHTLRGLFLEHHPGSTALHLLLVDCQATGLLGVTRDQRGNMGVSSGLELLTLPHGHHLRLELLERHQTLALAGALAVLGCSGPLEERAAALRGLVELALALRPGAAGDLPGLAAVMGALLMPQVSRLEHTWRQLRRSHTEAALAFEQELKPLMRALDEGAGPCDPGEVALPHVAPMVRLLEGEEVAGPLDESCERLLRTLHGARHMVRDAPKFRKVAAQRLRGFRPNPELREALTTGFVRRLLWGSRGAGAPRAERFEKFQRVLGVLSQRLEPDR
UniProt Q9UIV8: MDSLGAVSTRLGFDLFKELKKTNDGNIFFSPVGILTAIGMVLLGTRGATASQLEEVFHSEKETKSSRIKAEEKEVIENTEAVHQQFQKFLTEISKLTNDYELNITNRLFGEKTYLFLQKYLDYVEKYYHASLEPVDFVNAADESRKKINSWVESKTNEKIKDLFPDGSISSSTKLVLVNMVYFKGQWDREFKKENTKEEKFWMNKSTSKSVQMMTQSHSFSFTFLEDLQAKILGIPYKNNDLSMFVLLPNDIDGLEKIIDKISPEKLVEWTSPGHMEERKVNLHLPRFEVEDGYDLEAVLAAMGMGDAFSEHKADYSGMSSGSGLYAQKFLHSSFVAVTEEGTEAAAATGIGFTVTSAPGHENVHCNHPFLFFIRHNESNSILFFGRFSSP
UniProt Q6IA17: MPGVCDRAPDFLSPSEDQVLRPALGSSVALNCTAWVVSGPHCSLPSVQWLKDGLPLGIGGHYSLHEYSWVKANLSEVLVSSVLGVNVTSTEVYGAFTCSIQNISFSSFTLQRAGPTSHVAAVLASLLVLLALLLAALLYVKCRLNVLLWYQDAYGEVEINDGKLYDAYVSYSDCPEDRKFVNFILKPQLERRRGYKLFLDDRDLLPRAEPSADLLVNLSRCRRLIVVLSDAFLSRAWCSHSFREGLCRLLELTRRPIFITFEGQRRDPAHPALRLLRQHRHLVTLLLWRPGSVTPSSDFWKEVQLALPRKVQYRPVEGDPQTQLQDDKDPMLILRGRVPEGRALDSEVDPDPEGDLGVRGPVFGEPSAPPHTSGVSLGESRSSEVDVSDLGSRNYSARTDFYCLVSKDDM
UniProt P01009, whole entry, looked up: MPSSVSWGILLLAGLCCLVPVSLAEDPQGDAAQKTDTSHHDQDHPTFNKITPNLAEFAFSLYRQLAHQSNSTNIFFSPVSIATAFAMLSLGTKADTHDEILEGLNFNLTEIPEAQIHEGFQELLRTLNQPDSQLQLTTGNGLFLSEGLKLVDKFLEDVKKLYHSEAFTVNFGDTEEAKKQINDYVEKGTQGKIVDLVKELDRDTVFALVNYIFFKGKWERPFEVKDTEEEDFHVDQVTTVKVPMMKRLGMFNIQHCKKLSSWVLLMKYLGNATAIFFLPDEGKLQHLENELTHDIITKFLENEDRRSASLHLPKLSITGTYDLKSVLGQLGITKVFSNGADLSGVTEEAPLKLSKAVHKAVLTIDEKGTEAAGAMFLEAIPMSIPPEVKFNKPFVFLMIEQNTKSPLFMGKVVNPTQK
UniProt P09131: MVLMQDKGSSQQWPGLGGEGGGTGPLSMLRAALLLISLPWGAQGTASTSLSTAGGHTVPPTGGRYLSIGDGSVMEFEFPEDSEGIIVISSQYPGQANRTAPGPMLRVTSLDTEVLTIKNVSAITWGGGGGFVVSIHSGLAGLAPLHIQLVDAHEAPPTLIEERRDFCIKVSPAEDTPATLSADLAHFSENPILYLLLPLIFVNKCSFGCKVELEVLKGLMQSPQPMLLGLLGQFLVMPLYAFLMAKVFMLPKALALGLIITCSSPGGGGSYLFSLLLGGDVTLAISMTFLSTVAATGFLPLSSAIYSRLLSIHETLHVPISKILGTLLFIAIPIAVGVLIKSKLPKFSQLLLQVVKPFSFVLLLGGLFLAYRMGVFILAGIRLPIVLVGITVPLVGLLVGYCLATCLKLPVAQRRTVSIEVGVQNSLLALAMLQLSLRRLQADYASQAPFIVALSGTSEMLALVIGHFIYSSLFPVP
UniProt Q9Y666: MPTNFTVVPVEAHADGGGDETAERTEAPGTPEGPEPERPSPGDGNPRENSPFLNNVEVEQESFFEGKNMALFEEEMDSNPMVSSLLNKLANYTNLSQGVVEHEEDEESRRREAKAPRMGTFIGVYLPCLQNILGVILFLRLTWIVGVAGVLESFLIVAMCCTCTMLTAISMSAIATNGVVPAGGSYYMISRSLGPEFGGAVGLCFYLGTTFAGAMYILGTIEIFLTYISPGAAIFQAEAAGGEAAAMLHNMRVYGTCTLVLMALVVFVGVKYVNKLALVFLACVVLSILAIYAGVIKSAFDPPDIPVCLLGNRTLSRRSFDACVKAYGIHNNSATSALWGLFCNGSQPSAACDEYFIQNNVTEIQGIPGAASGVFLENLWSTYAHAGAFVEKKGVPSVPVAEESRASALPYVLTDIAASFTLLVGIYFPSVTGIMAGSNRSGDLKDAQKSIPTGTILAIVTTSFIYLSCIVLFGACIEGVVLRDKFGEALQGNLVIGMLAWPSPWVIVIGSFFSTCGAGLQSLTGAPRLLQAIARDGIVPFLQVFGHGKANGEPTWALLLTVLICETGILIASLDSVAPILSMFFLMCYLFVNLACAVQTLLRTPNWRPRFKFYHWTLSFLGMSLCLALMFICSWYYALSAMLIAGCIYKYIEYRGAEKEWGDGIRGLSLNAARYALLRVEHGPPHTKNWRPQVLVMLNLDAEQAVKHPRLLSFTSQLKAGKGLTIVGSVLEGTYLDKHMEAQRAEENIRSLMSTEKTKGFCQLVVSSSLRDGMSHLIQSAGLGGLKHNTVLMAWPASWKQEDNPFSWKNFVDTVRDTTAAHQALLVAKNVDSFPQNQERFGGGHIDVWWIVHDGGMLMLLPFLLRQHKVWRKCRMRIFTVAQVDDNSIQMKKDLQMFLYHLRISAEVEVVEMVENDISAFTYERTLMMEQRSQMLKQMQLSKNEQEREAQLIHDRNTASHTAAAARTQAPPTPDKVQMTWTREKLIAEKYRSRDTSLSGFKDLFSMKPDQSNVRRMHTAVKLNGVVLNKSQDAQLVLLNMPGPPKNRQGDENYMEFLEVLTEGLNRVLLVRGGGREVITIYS

What was measured:
Test in all cases: log2 fold change, soluble protein after heating vs DMSO (PISA); higher = thermal stabilisation; K562 lysate, 10 uM; active = over 0.2 and 3.5 SD of the protein, either way, in both replicates (recomputed)
[1] = compound: C1CCN(C1)C(=O)NC2=CC=CC(=C2)NC3=NC=C(C(=N3)NCCC4=CN=CN4)Br
In short: (§1)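 Quantification was by TMTpro 16plex LC-MS/MS with equalised channel sums, applied to the supernatant after 21,000xg for 90 min. Samples were crude K562 extract at 1 mg/mL protein in PBS pH 7.4 with 1 mM MgCl2, treated with 10 μM compound for 30 min, heated for 3 min across 48°C-58°C, pooled and brought to 0.5% NP-40 at 4°C. Values are log-two fold changes in thermal stability relative to solvent controls, from duplicates.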

[2] = compound: C1CN(CCC1(CC2=CC=C(C=C2)Cl)N)C3=NC=NC4=C3C=CN4
In short: as §1

[3] = compound: CC1=C(C2=C(C=C1)C(=O)C3=CC=CC=C3N2CCCN)C
In short: as §1

[4] = compound: CC1=C(C=C(C=C1)NC(=O)C2=CC(=CC=C2)C(C)(C)C#N)NC3=CC4=C(C=C3)N=CN(C4=O)C
In short: as §1

erlotinib = compound: C#Cc1cccc(Nc2ncnc3cc(OCCOC)c(OCCOC)cc23)c1 [erlotinib]
In short: as §1

[5] = compound: C1=CC(=CC=C1C2=NC3=C(N2)C=C(C=C3)C(=O)N)OC4=CC=C(C=C4)Cl
In short: as §1

[6] = compound: C1=CC=C(C=C1)C2=NC(=C(N2)C3=CC=NC=C3)C4=CC(=C(C=C4)Cl)O
In short: as §1

IRAK-1-4 Inhibitor I = compound: C1COCCN1CCN2C3=CC=CC=C3N=C2NC(=O)C4=CC(=CC=C4)[N+](=O)[O-] [IRAK-1-4 Inhibitor I]
In short: as §1

[7] = compound: CC(=O)c1cnc2ccc(-c3cc(Cl)c(O)c(Cl)c3)nc2c1N[C@H]1CC[C@H](CN(C)C)CC1
In short: as §1

ralimetinib = compound: CC(C)(C)Cn1c(N)nc2ccc(-c3[nH]c(C(C)(C)C)nc3-c3ccc(F)cc3)nc21 [ralimetinib]
In short: as §1

[8] = compound: CC(C)(O)CC(=O)NCCn1ccc2ncnc(Nc3ccc(Oc4cccc(C(F)(F)F)c4)c(Cl)c3)c21
In short: as §1

[9] = compound: CC(C)C1=C2N=C(C=C(N2N=C1)NCC3=CC=CC=C3)NCCCCCCN
In short: as §1

[10] = compound: CC1=C(C=C(C=C1)NC(=O)C2=CC(=CC=C2)N(C)C)NC(=O)C3=CC=C(C=C3)O
In short: as §1

[11] = compound: CC1=CC=C(C=C1)SC2=C3C=C(SC3=CN=C2)C(=O)N
In short: as §1

[12] = compound: C/C(=N\NC(=O)C1=CC(=CC=C1)S(=O)(=O)N2CCOCC2)/C3=C(C=CC(=C3)Cl)O
In short: as §1

[13] = compound: C1=CC2=C(C=CC(=C2)/C=C\3/C(=O)NC(=NCC4=CC=CS4)S3)N=C1
In short: as §1

[14] = compound: C1=CC2=NC=CN=C2C=C1/C=C/3\C(=O)NC(=O)S3
In short: as §1

[15] = compound: C1=CC=C2C(=C1)C3=NNC4=CC=CC(=C43)C2=O
In short: as §1

ibrutinib = compound: C=CC(=O)N1CCC[C@@H](n2nc(-c3ccc(Oc4ccccc4)cc3)c3c(N)ncnc32)C1 [ibrutinib]
In short: as §1

[16] = compound: CC1=C(C(CC(=O)N1)C2=CC=C(C=C2)C(F)(F)F)C(=O)NC3=C(C=C4C(=C3)C=NN4)F
In short: as §1

Measured: log2 fold change

SHLD1 (UniProt Q8IYI0)
inactive: [1] 0.194 | [2] 0.116 | [3] 0.125

SFT2D1 (UniProt Q8WV19)
inactive: [3] -0.079 | [4] -0.145

SHB (UniProt Q15464)
inactive: erlotinib 0.003 | [5] 0.033 | [6] -0.014 | IRAK-1-4 Inhibitor I -0.067 | [7] -0.023 | ralimetinib 0.023 | [8] -0.025 | [9] -0.009 | [3] -0.01 | [4] 0.023 | [10] -0.012 | [11] 0.05

SERPINA7 (UniProt P05543)
inactive: [12] -0.107 | [13] -0.007 | [14] -0.189 | [15] -0.011 | [1] -0.1 | [2] 0.005 | ibrutinib 0.045

SIMC1 (UniProt Q8NDZ2)
inactive: [12] -0.116 | [13] -0.087 | [14] -0.097 | [15] 0.001 | [1] 0.072 | [2] -0.194 | ibrutinib -0.141 | [16] -0.072 | [4] 0.35

SERPINB7 (UniProt O75635)
inactive: [6] 0.206 | IRAK-1-4 Inhibitor I -0.156 | ralimetinib -0.161 | [8] 0.471 | [4] 0.523 | [10] 0.009

SLC19A2 (UniProt O60779)
inactive: [14] -0.174 | [1] 0.256 | [2] -0.253 | ibrutinib 0.062 | [7] 0.088 | [16] -0.003 | [3] -0.009 | [11] -0.088

SHMT2 (UniProt G3V2Y4)
inactive: [14] -0.085 | ibrutinib 0.012

SET isoform 3 (UniProt Q01105)
inactive: [1] 0.201 | [2] 0.047 | [3] -0.002

SESTD1 (UniProt Q86VW0)
inactive: [6] -0.198 | IRAK-1-4 Inhibitor I 0.181 | ralimetinib 0.102 | [8] -0.109 | [4] -0.267 | [10] 0.054

SLC20A2 (UniProt Q08357)
inactive: [12] -0.05 | [13] -0.078 | [14] 0.078 | [6] 0.028 | [15] -0.005 | [1] 0.053 | [2] 0.011 | IRAK-1-4 Inhibitor I 0.035 | ibrutinib 0.107 | [7] 0.014 | ralimetinib 0.013 | [8] -0.016 | [16] 0.227 | [3] 0.016 | [4] -0.039 | [10] -0.027 | [11] 0.024

SETD6 (UniProt Q8TBK2)
inactive: erlotinib -0.142 | [5] -0.036 | [6] 0.058 | IRAK-1-4 Inhibitor I 0.138 | ralimetinib -0.029 | [8] -0.253 | [9] -0.141 | [16] 0.051 | [3] -0.128 | [10] 0.103

SH2D3A (UniProt Q9BRG2)
inactive: [14] -0.28 | [6] -0.027 | IRAK-1-4 Inhibitor I -0.039 | ibrutinib -0.004 | ralimetinib -0.043 | [8] -0.102 | [16] 0.139 | [10] 0.007

SERPINH1 (UniProt E9PK86)
inactive: [16] -0.222

SKIV2L (UniProt Q15477)
inactive: [12] 0.34 | [13] -0.097 | [15] 0.211

SLAIN2 (UniProt D6RIF6)
inactive: [6] 0.142 | IRAK-1-4 Inhibitor I 0.081 | ralimetinib -0.167 | [8] -0.353 | [4] 0.037 | [10] -0.015

SERPINB13 (UniProt Q9UIV8)
inactive: [14] 0.388 | ibrutinib -0.139

SGO2 (UniProt Q562F6)
inactive: [14] -0.098 | [6] -0.108 | [1] -0.086 | [2] 0.153 | IRAK-1-4 Inhibitor I 0.152 | ibrutinib -0.03 | ralimetinib 0 | [8] -0.237 | [4] 0.039 | [10] -0.026

SLC10A4 (UniProt Q96EP9)
inactive: erlotinib -0.004 | [5] 0.032 | [6] 0.115 | IRAK-1-4 Inhibitor I -0.288 | [7] -0.21 | ralimetinib 0.032 | [8] 0.054 | [9] 0.044 | [3] -0.007 | [10] 0.124 | [11] 0.023

SIGIRR (UniProt Q6IA17)
inactive: [12] 0.113 | [13] 0.052 | [15] -0.071 | [1] 0.22 | [2] 0.26 | [7] 0.072 | [11] -0.055

SH2D1B (UniProt O14796)
inactive: [12] -1.02 | [13] 0.156 | [6] 0.035 | [15] -0.05 | [1] -0.05 | [2] -0.032 | IRAK-1-4 Inhibitor I 0.06 | ralimetinib -0.021 | [8] 0.149 | [3] -0.114 | [4] 0.067 | [10] -0.002

SHMT1 (UniProt J3KRZ5)
inactive: [16] -0.339

SETD1B (UniProt Q9UPS6)
inactive: [12] -0.032 | [13] -0.05 | [14] -0.114 | [15] -0.019 | ibrutinib 0.075 | [3] -0.079 | [4] -0.005

Quoted from the entries so far (5 entries):
SERPINB13 (UniProt Q9UIV8)
inactive: [14] 0.388 | ibrutinib -0.139

SGO2 (UniProt Q562F6)
inactive: [14] -0.098 | [6] -0.108 | [1] -0.086 | [2] 0.153 | IRAK-1-4 Inhibitor I 0.152 | ibrutinib -0.03 | ralimetinib 0 | [8] -0.237 | [4] 0.039 | [10] -0.026

SLC10A4 (UniProt Q96EP9)
inactive: erlotinib -0.004 | [5] 0.032 | [6] 0.115 | IRAK-1-4 Inhibitor I -0.288 | [7] -0.21 | ralimetinib 0.032 | [8] 0.054 | [9] 0.044 | [3] -0.007 | [10] 0.124 | [11] 0.023

SIGIRR (UniProt Q6IA17)
inactive: [12] 0.113 | [13] 0.052 | [15] -0.071 | [1] 0.22 | [2] 0.26 | [7] 0.072 | [11] -0.055

SH2D1B (UniProt O14796)
inactive: [12] -1.02 | [13] 0.156 | [6] 0.035 | [15] -0.05 | [1] -0.05 | [2] -0.032 | IRAK-1-4 Inhibitor I 0.06 | ralimetinib -0.021 | [8] 0.149 | [3] -0.114 | [4] 0.067 | [10] -0.002

Continuation.

SERPINA1 (UniProt P01009)
inactive: [6] 0.863 | IRAK-1-4 Inhibitor I -0.335 | ralimetinib -0.07 | [8] 0.303 | [3] -0.057 | [10] 0.031

SLC10A3 (UniProt P09131)
inactive: [12] 0.139 | [13] -0.034 | [15] -0.045 | [1] -0.001 | [2] -0.035

SLC12A7 (UniProt Q9Y666)
inactive: [7] -0.147 | [11] 0.037
